In PMC6376957:
No constants are given. Whether binding was seen depends on the method and setting. Binding calls can cover weak binding; strength is not graded here. For some of these results: Binding seen in cells or lysates may run through a third protein. For some of these results: Tags and fused reporters may be left off the sequences shown. Each block holds one molecule with its values, some of them ahead of it.

By UniProt entry, the sequences of proteins in these tests, tags left out.
UniProt P05804: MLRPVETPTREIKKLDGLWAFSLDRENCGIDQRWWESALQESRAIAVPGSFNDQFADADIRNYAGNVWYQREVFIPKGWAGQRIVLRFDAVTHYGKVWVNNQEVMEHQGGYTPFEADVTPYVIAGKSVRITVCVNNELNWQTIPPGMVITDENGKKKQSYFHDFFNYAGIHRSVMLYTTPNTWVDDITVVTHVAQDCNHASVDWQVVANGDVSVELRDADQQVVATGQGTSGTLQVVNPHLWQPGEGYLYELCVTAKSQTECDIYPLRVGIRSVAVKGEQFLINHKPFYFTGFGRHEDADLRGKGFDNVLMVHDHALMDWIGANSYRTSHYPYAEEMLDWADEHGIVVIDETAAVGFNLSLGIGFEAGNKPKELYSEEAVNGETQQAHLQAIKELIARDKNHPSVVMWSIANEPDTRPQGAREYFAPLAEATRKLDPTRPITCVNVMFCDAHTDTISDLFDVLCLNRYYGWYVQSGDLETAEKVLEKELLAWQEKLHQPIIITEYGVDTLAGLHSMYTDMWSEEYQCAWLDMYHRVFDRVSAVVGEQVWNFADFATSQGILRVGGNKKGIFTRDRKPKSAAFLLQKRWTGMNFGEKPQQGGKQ

How the values were obtained:
[1] = molecular target: OsFTL10 fused to nYFP (BiFC) (rice (Oryza sativa)); test: split reporter; BiFC in rice protoplasts: GF14c in p35S::cYFP, OsFTL10 in p35S::nYFP; live cell imaging by confocal microscope; GUS in place of either partner as negative control
[2] = molecular target: OsFTL10 (two-hybrid bait in pGBKT7) (rice (Oryza sativa)); test: two-hybrid; Matchmaker Gold Yeast Two-Hybrid System; OsFTL10 in pGBKT7 as bait, 14-3-3s in pGADT7 as prey

Molecule: GF14b (two-hybrid prey in pGADT7) (from UniProt Q7XTE8 1-262)
binding [2]: binds

B1: GF14a (two-hybrid prey in pGADT7) (protein, UniProt Q84J55 1-264)
chain: MAAAAGGGTREEMVYMAKLAEQAERYEEMVEFMEKVVTAAAAGGGGELTVEERNLLSVAYKNVIGARRASWRIVSSIEQKEEGRGAAGHAAAARSYRARVEAELSNICAGILRLLDERLVPAAAAVDAKVFYLKMKGDYHRYLAEFKTGAERKDAADATLAAYQAAQDIAMKELSPTHPIRLGLALNFSVFYYEILNSPDRACTLAKQAFDEAISELDTLGEESYKDSTLIMQLLRDNLTLWTSDMQDDGGDEMRDATKPEDEH
binding [2]: binds

B3: GF14c fused to cYFP (BiFC) (protein, UniProt Q6ZKC0 1-256)
chain: MSREENVYMAKLAEQAERYEEMVEYMEKVAKTVDVEELTVEERNLLSVAYKNVIGARRASWRIVSSIEQKEEGRGNEEHVTLIKEYRGKIEAELSKICDGILKLLDSHLVPSSTAAESKVFYLKMKGDYHRYLAEFKTGAERKEAAESTMVAYKAAQDIALADLAPTHPIRLGLALNFSVFYYEILNSPDKACNLAKQAFDEAISELDTLGEESYKDSTLIMQLLRDNLTLWTSDLTEDGGDEVKEASKGDACEGQ
binding [1]: binds

B4: GF14c (two-hybrid prey in pGADT7) (protein, UniProt Q6ZKC0 1-256)
chain: B3 chain
binding [2]: binds

Results, then the molecule that gave them:

binding [1]: no binding
Molecule: GUS fused to cYFP (BiFC negative control, in place of GF14c) (from UniProt P05804 1-603) (enzyme)

binding [2]: binds
Molecule: GF14e (two-hybrid prey in pGADT7) (from UniProt Q6EUP4 1-262)

binding [2]: binds
B2: GF14d (two-hybrid prey in pGADT7) (protein, UniProt Q2R2W2 1-265)
chain: MSPAEPTREESVYKAKLAEQAERYEEMVEYMERVARAAGGASGGEELTVEERNLLSVAYKNVIGARRASWRIISSIEQKEEGRGNDAHAATIRSYRGKIEAELARICDGILALLDSHLVPSAGAAESKVFYLKMKGDYHRYLAEFKSGDERKQAAESTMNAYKAAQDIALADLAPTHPIRLGLALNFSVFYYEILNSPDRACNLAKQAFDEAISELDSLGEESYKDSTLIMQLLRDNLTLWTSDANDDGGDEIKEAAAPKEPGDQ
